Laboratory results: PubChem BioAssay AID1259415 (National Center for Advancing Translational Sciences (NCATS), 2018)
The whole screen tested about 410,000 compounds, of which about 18,000 (4.4%) were called active. Inconclusive results, whose numbers are uncertain, are shown with a selection of clear calls. Cut-off read from the data, not from the text of the source: active = activity change below about -60%; inconclusive = no clear call, values can overlap the other calls; inactive = above about -39%.

Experiment: qHTS Assay for inhibitors of the human cytomegalovirus (HCMV)
Settings: HFF cells, HCMV-luciferase reporter, 72 h; at 57.5 µM; hits give low values
Outline: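 Cell-based, HFFs, 1000 cells/well, 16 h 37C; cpds in DMSO + HCMV-luc, MOI 1 PFU/cell; 72 h 37C; OneGlo luminescence after 5 min RT; norm. to buffer vs Salinomycin 10uM.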
% is set by controls: 0 for no effect and ±100 for the full control effect.

SMILES	activity change, negative = inhibition
CCOc1ccc(NC(=S)Nc2ccc(OCC)cc2)cc1	active: -100%
CC(C)(C)c1ccc(C(=O)NCCCN2CCN(CCCNC(=O)c3ccc(C(C)(C)C)cc3)CC2)cc1	inconclusive: -45.4%
COc1ccc(CNc2nc(-c3ccc(Cl)cc3)nn2S(=O)(=O)c2ccc(C)cc2)cc1	inactive: 9.27%
CCOc1ccc2nc(NCCNC(=O)Nc3cccc(C)c3)c(C#N)cc2c1	inconclusive: -44.5%
Cc1sc(-n2cccc2)c(C(C)NC(=O)Nc2cccc(C(F)(F)F)c2)c1C (stereo not given)	inconclusive: -40.4%
CCc1ccc(Nc2n[n+](-c3ccccc3)c(-c3ccc(C(=O)O)cc3)s2)cc1	inactive: 11.3%
COc1cc(OC)cc(C(=O)NCCc2csc3nc(-c4ccccc4F)nn23)c1	inactive: -6.5%
CCN(CC)/C(Sc1ccccc1)=C(/C(Cl)=C(Cl)Cl)[N+](=O)[O-]	inconclusive: -45%
CC1(c2ccccc2)NC(=O)N(CC(=O)Nc2cc(S(=O)(=O)N3CCOCC3)ccc2Cl)C1=O (stereo not given)	inconclusive: -40.4%
Cc1c(C(=O)NCc2ccc3c(c2)OCO3)oc2ccc(S(=O)(=O)N3CCCCC3)cc12	inconclusive: -55.6%
CCCOc1ccc(N2C(=O)CC(N(CCc3ccc(OC)cc3)C(=O)/C=C/C(=O)O)C2=O)cc1 (stereo not given)	inconclusive: -43.2%
COc1ccc(OC)c2[nH]c(C(=O)N3CCC(C(=O)O)CC3)cc12	inactive: 19.8%
Cc1onc(-c2ccccc2)c1C(=O)OCC(=O)N(C)c1c(N)n(Cc2ccccc2)c(=O)[nH]c1=O	inactive: 5.54%
O=C(COc1ccc(-c2ccccc2)cc1)N/N=C/c1cc(O)ccc1Br	active: -61%
C#CCOc1c(Br)cc(/C=N/O)cc1OCC	inconclusive: -44.3%
Cc1cc(C(=O)NCCC2=CCCCC2)no1	inactive: -7.14%
N=c1n(CC(=O)c2ccc(Br)cc2)c2ccccc2n1Cc1ccccc1	active: -60.5%
CC(C)Oc1cccc(C(=O)C2CCCN(C(=O)c3cncs3)C2)c1 (stereo not given)	inconclusive: -55.9%
CC[n+]1c(/C=C/C=C/N(C(C)=O)c2ccccc2)sc2ccccc21	inconclusive: -48.8%
O=C1C(SCCO)=C(SCCO)C(=O)c2ccccc21	active: -95%
[2H]c1c([2H])c([2H])c(-c2nc(N3CCCCCC3)sc2C(=O)c2ccccc2)c([2H])c1[2H]	inconclusive: -46%
Cc1ccc(NC(=O)CSc2nc(=O)n(CCN(C)C)c3c2CCCC3)cc1Cl	inactive: -7.91%

SMILES	activity change, negative = inhibition
CCOC(=O)c1c(NC(=O)CCS(=O)(=O)c2ccccc2)sc2c1CCN(C)C2	inactive: 5.93%
Cc1ccc(CSc2nnc(SCC(=O)N/N=C/c3c(C)nn(-c4ccccc4)c3C)s2)cc1	inactive: -8.85%
Cc1ccc(NC(=O)c2cc(C(=O)c3cc(Cl)ccc3O)cn(-c3ccc(C)cc3)c2=O)cc1	active: -70.2%
CCc1ccc(/C=C2\SC(=S)N(CCC(=O)NC3=NCCS3)C2=O)cc1	inconclusive: -56.1%
O=c1c(Oc2ccccc2F)coc2cc(OCc3cnn(-c4ccccc4)c3)ccc12	inconclusive: -44.1%
Cc1ccc(NC(=O)CN2CCC(NC(=O)Cc3ccccc3)CC2)c(C)c1	inconclusive: -49.4%
O=S(=O)(NCc1ccccc1)c1ccc(S(=O)(=O)NCC2CCCO2)cc1 (stereo not given)	inactive: 3.67%
COc1cc(/C=C2\SC(N)=NC2=O)ccc1O	active: -75.5%
N#C/C(=C\C=C\c1ccccc1[N+](=O)[O-])C(=O)NCc1ccccc1	active: -98.4%
Cc1cccc(N2CCN(S(=O)(=O)c3ccc(-c4cnc(C5CC5)o4)cc3)CC2)c1C	inactive: -17.4%
Cc1ccc(Cn2c(SCC(=O)NCc3ccccc3)nc3ccsc3c2=O)cc1	inconclusive: -52.4%
Cc1ccc(/C=N/NC(=O)c2cc(-c3cccnc3)nc3ccccc23)cc1	inconclusive: -48.7%
COc1ccc(NC(=O)NNS(=O)(=O)c2cc(C)ccc2C)cc1OC	inactive: -12.2%
COC(=O)c1cc2oc3ccccc3c2n1Cc1ccc(C)cc1	inactive: -30.1%
Cc1c(Cl)cccc1Nc1nn2c(=O)c3ccccc3nc2s1	inactive: 36.5%
CCC1CCC/C1=N\NC(=O)CCC(=O)Nc1ccccc1Cl (stereo not given)	inconclusive: -41%
O=C(Cn1cc(F)c(=O)[nH]c1=O)NCCO	inconclusive: -46%
Cc1ccc(-n2c(C)cc(/C=N/NC(=O)CC3(C)OCCO3)c2C)cc1	inconclusive: -50.7%
CC(=O)Nc1ccc(C(=O)CS(=O)(=O)c2ccc(C)cc2)cc1	inconclusive: -48%
CCN(CC)C(=O)c1sc2c(c1C)c(=O)n(-c1ccc(OC)cc1OC)c(=O)n2CC(=O)c1ccccc1	inconclusive: -40.7%
O=C(CN1CCN(c2ccccc2O)CC1)Nc1ccc([N+](=O)[O-])cc1Br	inconclusive: -41.8%
CCc1ccccc1NC(=O)C1CCN(S(=O)(=O)c2ccc(N3CCCC3=O)cc2)CC1	inconclusive: -41.5%

SMILES	activity change, negative = inhibition
O=c1cc(-c2ccccc2)[nH]c2cc(Cl)ccc12	inactive: -24.9%
CCOC(=O)c1c(NC(=O)CSc2nnc(-c3ccccc3)n2CC)sc(C(C)=O)c1C	inactive: 19.4%
O=C(c1cccs1)N1CCC(c2nc3ccccc3s2)CC1	inconclusive: -43.3%
Cn1c2c(c(=O)[nH]c1=O)C(NC(=O)c1ccco1)(C(F)(F)F)C(=O)N2 (stereo not given)	inactive: -23.8%
Cc1ccc(S(=O)(=O)CC2CSc3nc4ccccc4n32)cc1 (stereo not given)	active: -71.9%
Cc1nnsc1C(=O)N(Cc1ccccc1)C(C)C	inconclusive: -56.1%
CCS(=O)(=O)N1CCc2cc(C(=O)Nc3ccc(Br)cc3F)ccc21	inconclusive: -54.3%
O=C(CCS(=O)(=O)c1ccccc1)NNC(=O)CSc1ccccc1F	inconclusive: -41.4%
CCOC(=O)C1(Cc2cccc(OC)c2)CCN(Cc2cnc(SC)nc2)CC1	inconclusive: -56.7%
Cc1ccc(C2C(=O)N(C3CCC(C)CC3)CC(=O)N2C2CCCC2)cc1 (stereo not given)	inconclusive: -55%
COc1ccc(Cn2c(O)c(/C=C3/C=CC=N3)c(=O)[nH]c2=O)cc1	inconclusive: -53.1%
CN1/C(=C\C(=O)Nc2cccc(Cl)c2)C(C)(C)c2ccccc21	inconclusive: -41.7%
O=c1nc(Nc2ccc(Br)cc2)sc2ccc([N+](=O)[O-])cc12	inconclusive: 0%
O=C(NCc1ccc(Cl)cc1)c1ccc(CSc2nc3ccncc3[nH]2)cc1	inconclusive: -44.2%
O=C(CN(c1cccc(Cl)c1)S(=O)(=O)c1ccccc1)NN=C1CCCC1	inconclusive: -40.1%
COC(=O)c1cn(C(=O)c2cccc(C)c2)c2ccccc12	inconclusive: -40.4%
CN(c1ccccc1)S(=O)(=O)c1cccc(NC(=O)c2ccncc2)c1	inconclusive: -59.9%
Brc1ccc2[nH]c3c(NCc4ccccn4)ncnc3c2c1	inconclusive: -56.3%
NC(=O)NC(=O)CC1S/C(=N/N=C2/NC(=O)CS2)NC1=O (stereo not given)	inconclusive: -45.9%
CC1CCN(C(=O)CSc2ccc(-c3ccc4c(c3)OCCO4)nn2)CC1	inconclusive: -43.6%
C/C(=N/OCC(=O)NCCCCCCNC(=O)CO/N=C(/C)c1cccs1)c1cccs1	inconclusive: -45%
COc1cccc(CN2C(=O)c3ccccc3Sc3ccc(C(=O)N(C)Cc4ccccc4)cc32)c1	inconclusive: -54.1%

SMILES	activity change, negative = inhibition
COc1ccccc1NC(=O)c1cc2ccc3cccnc3c2[nH]1	inactive: 78.7%
Cc1ccc2nc(SC(C)C(=O)Nc3cccc([N+](=O)[O-])c3)[nH]c2c1 (stereo not given)	active: -67.5%
COc1ccc(-c2csc(Cc3nc(O)cs3)n2)cc1	inconclusive: -46.9%
O=C(Nc1cccc2ccccc12)c1ccc([N+](=O)[O-])o1	inconclusive: -45%
CC(=O)Nc1ccc(NC(=O)/C(=C/c2ccco2)NC(=O)c2ccccc2)cc1	inconclusive: -59.8%
O=C(CCCn1nnnc1CN1CCOCC1)N1CCC(c2ccccc2F)C1 (stereo not given)	inconclusive: -42.7%
CCn1c(-c2cc(Br)cc(OC)c2O)nc2cc(S(=O)(=O)N(C)C)ccc21	inconclusive: -42.3%
COc1ccc(NC(=O)/C(C#N)=C\c2cc(OC)c(OCc3ccc(C(=O)O)cc3)cc2Br)cc1	inconclusive: -50.2%
O=C(c1ccccc1)C(CCC(CN1CCOCC1)C(=O)c1ccccc1)CN1CCOCC1 (stereo not given)	active: -105%
CCOC(=O)N1CCN(C(=O)CCC(=O)c2ccc(OCC)cc2)CC1	inactive: -28.3%
CCOC(=O)c1c(C)[nH]c(C(=O)N/N=C/c2cccc(OC)c2)c1C	inactive: -36.3%
O=S(=O)(Nc1cccnc1)c1ccc(Br)c2ccccc12	inconclusive: -41.7%
Cc1cccc(C)c1-n1c(=O)c2nc3ccccc3nc2c2ccccc21	active: -95.8%
Cc1ccc(S(=O)(=O)N2CCN(CC(=O)Nc3ccc([N+](=O)[O-])cc3)CC2)cc1C	inconclusive: -40.7%
CCC(=NC1CC(C)(C)NC(C)(C)C1)C1=C(O)CC(C)(C)CC1=O	inconclusive: -54.5%
O=S1(=O)c2ccc(Br)cc2OC2CCCC[C@@H]2N1Cc1ccccc1 (stereo not given in full)	inactive: 8.54%
Nc1ccc(S(=O)(=O)Nc2nccc(/C=C/c3cccc(Br)c3)n2)cc1	active: -73.3%
COC12C(COC(N)=O)C3=C(C(=O)C(C)=C(N)C3=O)N1CC1C2N1C (stereo not given)	active: -105%
Cc1cc(Cl)c(OCCCN(C)C)c(Br)c1	inactive: 32.5%

25 entries from above, reformatted:
SMILES,"activity change, negative = inhibition"
O=C(NCc1ccc(Cl)cc1)c1ccc(CSc2nc3ccncc3[nH]2)cc1,inconclusive: -44.2%
O=C(CN(c1cccc(Cl)c1)S(=O)(=O)c1ccccc1)NN=C1CCCC1,inconclusive: -40.1%
COC(=O)c1cn(C(=O)c2cccc(C)c2)c2ccccc12,inconclusive: -40.4%
CN(c1ccccc1)S(=O)(=O)c1cccc(NC(=O)c2ccncc2)c1,inconclusive: -59.9%
Brc1ccc2[nH]c3c(NCc4ccccn4)ncnc3c2c1,inconclusive: -56.3%
NC(=O)NC(=O)CC1S/C(=N/N=C2/NC(=O)CS2)NC1=O (stereo not given),inconclusive: -45.9%
COc1cccc(CN2C(=O)c3ccccc3Sc3ccc(C(=O)N(C)Cc4ccccc4)cc32)c1,inconclusive: -54.1%
COc1ccccc1NC(=O)c1cc2ccc3cccnc3c2[nH]1,inactive: 78.7%
COc1ccc(-c2csc(Cc3nc(O)cs3)n2)cc1,inconclusive: -46.9%
O=C(Nc1cccc2ccccc12)c1ccc([N+](=O)[O-])o1,inconclusive: -45%
CC(=O)Nc1ccc(NC(=O)/C(=C/c2ccco2)NC(=O)c2ccccc2)cc1,inconclusive: -59.8%
O=C(CCCn1nnnc1CN1CCOCC1)N1CCC(c2ccccc2F)C1 (stereo not given),inconclusive: -42.7%
CCn1c(-c2cc(Br)cc(OC)c2O)nc2cc(S(=O)(=O)N(C)C)ccc21,inconclusive: -42.3%
COc1ccc(NC(=O)/C(C#N)=C\c2cc(OC)c(OCc3ccc(C(=O)O)cc3)cc2Br)cc1,inconclusive: -50.2%
O=C(c1ccccc1)C(CCC(CN1CCOCC1)C(=O)c1ccccc1)CN1CCOCC1 (stereo not given),active: -105%
CCOC(=O)N1CCN(C(=O)CCC(=O)c2ccc(OCC)cc2)CC1,inactive: -28.3%
CCOC(=O)c1c(C)[nH]c(C(=O)N/N=C/c2cccc(OC)c2)c1C,inactive: -36.3%
O=S(=O)(Nc1cccnc1)c1ccc(Br)c2ccccc12,inconclusive: -41.7%
Cc1cccc(C)c1-n1c(=O)c2nc3ccccc3nc2c2ccccc21,active: -95.8%
Cc1ccc(S(=O)(=O)N2CCN(CC(=O)Nc3ccc([N+](=O)[O-])cc3)CC2)cc1C,inconclusive: -40.7%
CCC(=NC1CC(C)(C)NC(C)(C)C1)C1=C(O)CC(C)(C)CC1=O,inconclusive: -54.5%
O=S1(=O)c2ccc(Br)cc2OC2CCCC[C@@H]2N1Cc1ccccc1 (stereo not given in full),inactive: 8.54%
Nc1ccc(S(=O)(=O)Nc2nccc(/C=C/c3cccc(Br)c3)n2)cc1,active: -73.3%
COC12C(COC(N)=O)C3=C(C(=O)C(C)=C(N)C3=O)N1CC1C2N1C (stereo not given),active: -105%
Cc1cc(Cl)c(OCCCN(C)C)c(Br)c1,inactive: 32.5%
